Reference: the supplement of paper PMC12067093, “Discovery and optimisation of a covalent ligand for TRIM25 and its application to targeted protein ubiquitination” (Chemical Science, 2025)
The list shows a part of the results.

By UniProt entry, the sequences of proteins in these tests, tags left out. Where a name states a change or a piece, a line headed by the entry shows the natural chain unless it says otherwise.
UniProt P17987, whole entry, looked up: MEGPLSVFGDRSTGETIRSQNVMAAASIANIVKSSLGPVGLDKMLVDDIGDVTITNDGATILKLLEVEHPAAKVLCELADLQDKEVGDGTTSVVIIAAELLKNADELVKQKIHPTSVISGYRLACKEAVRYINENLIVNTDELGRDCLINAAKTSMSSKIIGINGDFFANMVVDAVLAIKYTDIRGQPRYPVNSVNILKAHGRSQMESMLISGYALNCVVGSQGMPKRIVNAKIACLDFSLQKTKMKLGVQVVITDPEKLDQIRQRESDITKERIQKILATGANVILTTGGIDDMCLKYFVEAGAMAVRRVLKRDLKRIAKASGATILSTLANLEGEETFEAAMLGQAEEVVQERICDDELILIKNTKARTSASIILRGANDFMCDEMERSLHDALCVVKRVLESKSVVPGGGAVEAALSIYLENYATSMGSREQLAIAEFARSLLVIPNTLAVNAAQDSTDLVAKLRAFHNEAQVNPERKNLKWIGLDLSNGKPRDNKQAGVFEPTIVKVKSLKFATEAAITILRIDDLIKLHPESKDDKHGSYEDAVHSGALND
UniProt Q5JUR7: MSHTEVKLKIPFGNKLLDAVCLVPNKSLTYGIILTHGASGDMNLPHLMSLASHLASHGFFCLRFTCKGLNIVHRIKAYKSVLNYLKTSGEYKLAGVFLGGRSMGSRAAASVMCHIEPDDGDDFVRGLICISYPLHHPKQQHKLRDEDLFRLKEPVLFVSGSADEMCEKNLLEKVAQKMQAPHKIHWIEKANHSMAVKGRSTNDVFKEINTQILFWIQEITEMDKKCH
UniProt Q9UGI8: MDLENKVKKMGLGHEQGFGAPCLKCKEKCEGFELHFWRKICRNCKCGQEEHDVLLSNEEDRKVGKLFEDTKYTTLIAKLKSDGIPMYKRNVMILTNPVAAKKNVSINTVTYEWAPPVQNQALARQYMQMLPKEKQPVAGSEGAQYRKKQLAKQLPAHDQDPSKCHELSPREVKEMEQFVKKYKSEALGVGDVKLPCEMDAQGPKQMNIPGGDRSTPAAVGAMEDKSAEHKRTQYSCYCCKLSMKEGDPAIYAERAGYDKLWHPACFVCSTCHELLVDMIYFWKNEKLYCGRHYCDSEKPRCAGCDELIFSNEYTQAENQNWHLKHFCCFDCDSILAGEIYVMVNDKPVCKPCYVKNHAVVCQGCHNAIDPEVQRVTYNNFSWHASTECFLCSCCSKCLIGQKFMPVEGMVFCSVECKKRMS
UniProt O75663: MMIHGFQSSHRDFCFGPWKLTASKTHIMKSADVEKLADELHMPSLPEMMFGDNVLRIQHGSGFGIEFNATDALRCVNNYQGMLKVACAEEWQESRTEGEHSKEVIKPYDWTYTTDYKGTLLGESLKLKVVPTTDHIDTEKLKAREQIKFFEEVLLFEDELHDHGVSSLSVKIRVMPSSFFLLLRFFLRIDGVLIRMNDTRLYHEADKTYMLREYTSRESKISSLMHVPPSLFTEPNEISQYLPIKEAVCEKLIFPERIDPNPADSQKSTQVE
UniProt Q12800: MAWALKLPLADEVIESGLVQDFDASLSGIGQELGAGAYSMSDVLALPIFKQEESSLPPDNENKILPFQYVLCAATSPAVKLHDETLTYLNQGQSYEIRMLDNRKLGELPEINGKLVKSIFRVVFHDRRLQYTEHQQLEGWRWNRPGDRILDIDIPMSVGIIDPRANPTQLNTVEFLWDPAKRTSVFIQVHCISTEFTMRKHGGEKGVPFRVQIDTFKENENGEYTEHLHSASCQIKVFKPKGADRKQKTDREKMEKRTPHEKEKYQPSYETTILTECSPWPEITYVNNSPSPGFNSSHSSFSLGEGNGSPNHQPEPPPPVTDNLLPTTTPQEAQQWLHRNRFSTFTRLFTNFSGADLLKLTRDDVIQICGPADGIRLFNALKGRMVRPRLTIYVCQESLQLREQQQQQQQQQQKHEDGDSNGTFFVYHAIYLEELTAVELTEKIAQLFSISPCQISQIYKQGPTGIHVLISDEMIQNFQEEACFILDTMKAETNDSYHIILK
UniProt P02786, whole entry, looked up: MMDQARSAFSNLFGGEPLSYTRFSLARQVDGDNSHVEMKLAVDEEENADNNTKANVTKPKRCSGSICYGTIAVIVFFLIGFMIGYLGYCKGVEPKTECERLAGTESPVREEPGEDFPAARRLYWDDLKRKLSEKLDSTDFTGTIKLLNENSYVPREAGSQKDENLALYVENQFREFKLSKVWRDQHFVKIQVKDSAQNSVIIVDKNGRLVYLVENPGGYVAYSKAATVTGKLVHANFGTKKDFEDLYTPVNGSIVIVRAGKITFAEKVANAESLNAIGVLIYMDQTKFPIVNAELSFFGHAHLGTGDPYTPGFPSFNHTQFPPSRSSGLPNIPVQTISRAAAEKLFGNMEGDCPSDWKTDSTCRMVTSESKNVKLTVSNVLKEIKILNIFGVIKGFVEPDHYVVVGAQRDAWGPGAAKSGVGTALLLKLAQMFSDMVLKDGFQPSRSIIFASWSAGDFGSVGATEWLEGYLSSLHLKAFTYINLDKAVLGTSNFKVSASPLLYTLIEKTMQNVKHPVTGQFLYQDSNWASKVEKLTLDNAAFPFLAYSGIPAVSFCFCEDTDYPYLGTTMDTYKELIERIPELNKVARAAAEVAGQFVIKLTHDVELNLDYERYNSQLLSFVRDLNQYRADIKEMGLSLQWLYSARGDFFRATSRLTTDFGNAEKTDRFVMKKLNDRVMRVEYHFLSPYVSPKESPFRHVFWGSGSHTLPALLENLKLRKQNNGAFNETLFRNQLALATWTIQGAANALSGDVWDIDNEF
UniProt Q96FV9: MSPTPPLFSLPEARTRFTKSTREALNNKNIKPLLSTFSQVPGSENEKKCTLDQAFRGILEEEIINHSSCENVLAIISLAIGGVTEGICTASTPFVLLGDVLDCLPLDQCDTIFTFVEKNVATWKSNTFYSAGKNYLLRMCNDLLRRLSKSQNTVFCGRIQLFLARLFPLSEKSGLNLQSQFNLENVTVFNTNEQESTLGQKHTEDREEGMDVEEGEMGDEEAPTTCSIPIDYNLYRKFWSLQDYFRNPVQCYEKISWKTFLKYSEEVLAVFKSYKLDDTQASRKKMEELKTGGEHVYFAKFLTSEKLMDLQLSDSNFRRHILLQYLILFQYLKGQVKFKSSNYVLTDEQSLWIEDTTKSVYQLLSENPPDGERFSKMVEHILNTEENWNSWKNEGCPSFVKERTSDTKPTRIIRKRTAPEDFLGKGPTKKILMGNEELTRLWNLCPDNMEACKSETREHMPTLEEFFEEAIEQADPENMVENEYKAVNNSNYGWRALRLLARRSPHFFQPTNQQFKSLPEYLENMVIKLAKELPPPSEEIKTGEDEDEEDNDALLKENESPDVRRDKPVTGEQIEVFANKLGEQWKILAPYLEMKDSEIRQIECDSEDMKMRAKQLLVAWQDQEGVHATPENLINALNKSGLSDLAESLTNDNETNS
UniProt P62072: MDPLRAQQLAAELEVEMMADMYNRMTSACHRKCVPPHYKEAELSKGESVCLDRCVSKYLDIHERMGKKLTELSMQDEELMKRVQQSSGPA
UniProt P52888, whole entry, looked up: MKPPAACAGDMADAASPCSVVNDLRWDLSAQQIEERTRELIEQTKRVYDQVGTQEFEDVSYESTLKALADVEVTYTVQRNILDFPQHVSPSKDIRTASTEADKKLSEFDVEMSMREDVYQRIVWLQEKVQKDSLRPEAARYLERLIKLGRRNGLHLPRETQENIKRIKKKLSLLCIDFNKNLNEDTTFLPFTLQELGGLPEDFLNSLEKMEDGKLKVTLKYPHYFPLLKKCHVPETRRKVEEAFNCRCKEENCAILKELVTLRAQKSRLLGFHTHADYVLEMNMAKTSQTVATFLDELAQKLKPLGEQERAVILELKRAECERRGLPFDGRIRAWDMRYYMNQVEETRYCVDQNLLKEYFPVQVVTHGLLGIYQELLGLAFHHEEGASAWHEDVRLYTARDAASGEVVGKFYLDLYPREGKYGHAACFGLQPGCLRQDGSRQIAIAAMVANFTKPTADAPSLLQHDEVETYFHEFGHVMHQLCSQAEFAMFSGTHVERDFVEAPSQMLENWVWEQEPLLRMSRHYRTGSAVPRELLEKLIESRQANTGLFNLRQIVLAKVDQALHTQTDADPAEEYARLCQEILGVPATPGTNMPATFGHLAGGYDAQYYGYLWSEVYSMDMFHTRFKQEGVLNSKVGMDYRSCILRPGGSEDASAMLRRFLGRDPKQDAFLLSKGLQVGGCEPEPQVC
UniProt Q9BV44: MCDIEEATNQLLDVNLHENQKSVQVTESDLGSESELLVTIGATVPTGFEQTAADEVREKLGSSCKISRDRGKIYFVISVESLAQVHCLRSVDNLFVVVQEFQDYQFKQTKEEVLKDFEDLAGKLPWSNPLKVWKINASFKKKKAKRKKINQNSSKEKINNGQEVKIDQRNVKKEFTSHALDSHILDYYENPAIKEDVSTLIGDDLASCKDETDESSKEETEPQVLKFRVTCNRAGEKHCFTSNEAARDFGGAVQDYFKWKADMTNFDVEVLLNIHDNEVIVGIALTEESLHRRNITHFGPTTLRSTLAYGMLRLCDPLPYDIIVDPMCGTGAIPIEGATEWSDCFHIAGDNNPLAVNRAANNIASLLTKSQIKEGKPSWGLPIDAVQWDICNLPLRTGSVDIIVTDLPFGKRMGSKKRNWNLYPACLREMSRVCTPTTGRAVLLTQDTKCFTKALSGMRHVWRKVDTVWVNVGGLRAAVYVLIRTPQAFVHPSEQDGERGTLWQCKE
UniProt Q13769: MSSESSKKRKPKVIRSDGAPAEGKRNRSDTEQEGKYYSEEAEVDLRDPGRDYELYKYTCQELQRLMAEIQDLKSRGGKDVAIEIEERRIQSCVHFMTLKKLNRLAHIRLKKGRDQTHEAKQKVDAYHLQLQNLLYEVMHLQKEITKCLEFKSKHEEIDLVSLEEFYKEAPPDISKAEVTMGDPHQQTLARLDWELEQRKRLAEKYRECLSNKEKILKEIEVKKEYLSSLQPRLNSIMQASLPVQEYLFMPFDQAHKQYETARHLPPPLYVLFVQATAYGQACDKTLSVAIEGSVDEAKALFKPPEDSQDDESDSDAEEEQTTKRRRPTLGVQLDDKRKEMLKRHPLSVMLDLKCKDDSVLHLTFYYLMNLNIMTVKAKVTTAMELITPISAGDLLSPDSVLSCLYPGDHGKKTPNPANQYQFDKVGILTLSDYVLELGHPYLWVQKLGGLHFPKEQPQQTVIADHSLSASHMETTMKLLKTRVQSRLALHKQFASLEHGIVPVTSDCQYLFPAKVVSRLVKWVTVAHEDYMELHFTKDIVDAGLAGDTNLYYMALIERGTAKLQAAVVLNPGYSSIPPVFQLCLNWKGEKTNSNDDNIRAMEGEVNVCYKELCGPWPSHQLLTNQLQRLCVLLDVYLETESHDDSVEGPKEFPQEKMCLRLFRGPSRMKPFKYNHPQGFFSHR
UniProt O43294, whole entry, looked up: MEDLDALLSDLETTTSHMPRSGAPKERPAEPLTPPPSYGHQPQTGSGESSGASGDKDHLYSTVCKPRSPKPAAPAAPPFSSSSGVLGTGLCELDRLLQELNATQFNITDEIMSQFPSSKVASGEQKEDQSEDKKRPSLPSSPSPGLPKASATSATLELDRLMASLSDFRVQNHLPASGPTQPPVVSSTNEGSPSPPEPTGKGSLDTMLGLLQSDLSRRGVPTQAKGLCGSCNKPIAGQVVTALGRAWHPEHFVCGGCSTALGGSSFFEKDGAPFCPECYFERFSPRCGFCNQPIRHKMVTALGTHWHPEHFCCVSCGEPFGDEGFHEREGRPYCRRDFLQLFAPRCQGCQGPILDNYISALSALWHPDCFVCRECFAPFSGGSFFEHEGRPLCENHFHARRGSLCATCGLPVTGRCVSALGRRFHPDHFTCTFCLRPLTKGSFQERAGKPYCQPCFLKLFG
UniProt Q96CG3: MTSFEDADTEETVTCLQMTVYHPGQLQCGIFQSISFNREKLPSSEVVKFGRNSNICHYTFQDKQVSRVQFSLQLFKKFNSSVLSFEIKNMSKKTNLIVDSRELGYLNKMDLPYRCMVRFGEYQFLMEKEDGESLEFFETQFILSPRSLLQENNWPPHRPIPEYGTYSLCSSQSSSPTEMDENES

Compound: CC1Cc2ccccc2N1C(=O)C1CCCN(C1)C(=O)CCl (mixture of isomers) [TRIM25 ligand 11 (diastereomer mixture)]
Experiment: probe-labelled cysteine peptide fold change vs DMSO (competition) (log2 fold change); higher = less target engagement (more negative = stronger competition)
Conditions: THP-1, incubation time: 4 h
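Note: competitive chemoproteomic profiling in live THP-1 cells with an iodoacetamide desthiobiotin (IA-DTB) probe, comparing probe-labelled peptide intensities in compound-treated cells against DMSO-treated controls.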

| Target | probe-labelled cysteine peptide fold change (10 µM) | probe-labelled cysteine peptide fold change (50 µM) |
| --- | --- | --- |
| TCP1_P17987_236_IACLDFSLQK (UniProt P17987) | 0.0287 | 0.115 |
| TEX30_Q5JUR7_166_EPVLFVSGSADEMCEK (UniProt Q5JUR7) | -0.0196 | -0.0328 |
| TES_Q9UGI8_361+364_NHAVVCQGCHNAIDPEVQR (UniProt Q9UGI8) | -0.0698 | 0.0345 |
| TIPRL_O75663_14_DFCFGPWK (UniProt O75663) | -0.0112 | -0.0101 |
| TFCP2_Q12800_395_LTIYVCQESLQLR (UniProt Q12800) | 0.0944 | 0.0656 |
| TCP1_P17987_385_GANDFMCDEMER (UniProt P17987) | -0.0369 | -0.0838 |
| TFRC_P02786_363_TDSTCR (UniProt P02786) | -0.0248 | -0.0878 |
| THOC1_Q96FV9_396_NEGCPSFVK (UniProt Q96FV9) | 0.0412 | -0.021 |
| TIMM10_P62072_29_MTSACHR (UniProt P62072) | -0.161 | 0.224 |
| THOP1_P52888_644_SCILRPGGSEDASAMLR (UniProt P52888) | 0.0607 | -0.0855 |
| TES_Q9UGI8_29_CEGFELHFWR (UniProt Q9UGI8) | 0.0302 | -0.00802 |
| THUMPD3_Q9BV44_434_VCTPTTGR (UniProt Q9BV44) | -0.184 | -0.0742 |
| THOC5_Q13769_507_QFASLEHGIVPVTSDCQYLFPAK (UniProt Q13769) | 0.0632 | -0.308 |
| TGFB1I1_O43294_228+231_GLCGSCNKPIAGQVVTALGR (UniProt O43294) | -0.0173 | 0.00898 |
| TIFA_Q96CG3_56_NSNICHYTFQDK (UniProt Q96CG3) | 0.0984 | 0.118 |

2 entries from above, in CSV form:
Target,probe-labelled cysteine peptide fold change (10 µM),probe-labelled cysteine peptide fold change (50 µM)
THOP1_P52888_644_SCILRPGGSEDASAMLR (UniProt P52888),0.0607,-0.0855
TES_Q9UGI8_29_CEGFELHFWR (UniProt Q9UGI8),0.0302,-0.00802
